PubChem BioAssay AID504791, Drosophila RNAi Screening Center | 2011

Test: 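Genes of the fly required for silencing by miRNA, siRNA or endo-siRNA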 (primary screen)
System: Drosophila S2-derived reporter cells
Reagents: long dsRNA against Drosophila genes, about 150-250 ng dsRNA per well (siRNA assay); about 80-120 ng (miRNA assay)
Duration: about 5 days (siRNA assay); about 4 days (miRNA assay)
Challenge: copper sulfate induction of reporters: 25 µM (siRNA assay); 200 mM stated (miRNA assay), 1-2 days before reading
Detection: 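Per-well ratio of Renilla over firefly light, expressed relative to that plate's average ratio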
Active means: 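a well was a first-pass pick when its plate-scaled ratio rose above 1.5 (siRNA assay) or 1.6 (miRNA assay), or dropped below 0.6; a gene counted only if two separate dsRNAs agreed on retest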
The deposit covers about 23,000 reagents; this is a random part of those with a known target gene and a result. Of all reagents, 199 (0.86%) are marked active. 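Plate-scaled ratios behind the calls are not deposited; printed light signals are raw; many rows marked increased or decreased are still called inactive.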 The record does not give: the direction of the score.

Cf2 (GeneID 33692) [DRSC00744]
- stable assay Renilla, run 1 (luminescence): 4967
- stable assay firefly, run 1 (luminescence): 1.81e5
- activity call: inactive

Cf2 (GeneID 33692) [DRSC23015]
- stable assay Renilla, run 1 (luminescence): 3792
- stable assay firefly, run 1 (luminescence): 3.51e5
- activity call: inactive

Cyp28d1 (GeneID 33749) [DRSC03298]
- stable assay Renilla, run 1 (luminescence): 13700
- stable assay firefly, run 1 (luminescence): 3.37e5
- activity call: inactive

Cyp28d1 (GeneID 33749) [DRSC21331]
- stable assay Renilla, run 1 (luminescence): 8779
- stable assay firefly, run 1 (luminescence): 4.96e5
- activity call: inactive

Osi10b (GeneID 40764) [DRSC12279]
- stable assay Renilla, run 1 (luminescence): 7160
- stable assay firefly, run 1 (luminescence): 4.41e5
- activity call: inactive

GlcAT-P (GeneID 39262) [DRSC10603]
- stable assay Renilla, run 1 (luminescence): 7726
- stable assay firefly, run 1 (luminescence): 4.04e5
- activity call: inactive

GlcAT-P (GeneID 39262) [DRSC10604]
- stable assay Renilla, run 1 (luminescence): 6180
- stable assay firefly, run 1 (luminescence): 3.63e5
- activity call: inactive

Urod (GeneID 35986) [DRSC07569]
- stable assay Renilla, run 1 (luminescence): 7558
- stable assay firefly, run 1 (luminescence): 4.77e5
- activity call: inactive

CG6621 (GeneID 41319) [DRSC16076]
- stable assay Renilla, run 1 (luminescence): 7562
- stable assay firefly, run 1 (luminescence): 3.56e5
- activity call: inactive

CG13018 (GeneID 50224) [DRSC06274]
- stable assay Renilla, run 1 (luminescence): 6211
- stable assay firefly, run 1 (luminescence): 4.03e5
- activity call: inactive

CG2694 (GeneID 31260) [DRSC18470]
- stable assay Renilla, run 1 (luminescence): 6631
- stable assay firefly, run 1 (luminescence): 3.62e5
- activity call: inactive

CG2150 (GeneID 43745) [DRSC15420]
- stable assay Renilla, run 1 (luminescence): 7298
- stable assay firefly, run 1 (luminescence): 4.26e5
- activity call: inactive

Socs44A (GeneID 35786) [DRSC06828]
- stable assay Renilla, run 1 (luminescence): 7170
- stable assay firefly, run 1 (luminescence): 4.69e5
- activity call: inactive

Ilp1 (GeneID 39149) [DRSC10174]
- stable assay Renilla, run 1 (luminescence): 8158
- stable assay firefly, run 1 (luminescence): 3.76e5
- activity call: inactive

CG30460 (GeneID 36924) [DRSC06559]
- stable assay Renilla, run 1 (luminescence): 6935
- stable assay firefly, run 1 (luminescence): 4.10e5
- activity call: inactive

CG30460 (GeneID 36924) [DRSC06560]
- stable assay Renilla, run 1 (luminescence): 6280
- stable assay firefly, run 1 (luminescence): 2.32e5
- activity call: inactive

CG30460 (GeneID 36924) [DRSC23115]
- stable assay Renilla, run 1 (luminescence): 4191
- stable assay firefly, run 1 (luminescence): 3.25e5
- activity call: inactive

CG33233 (GeneID 2769005) [DRSC08239]
- stable assay Renilla, run 1 (luminescence): 6811
- stable assay firefly, run 1 (luminescence): 3.55e5
- activity call: inactive

Cpr5C (GeneID 31510) [DRSC18340]
- stable assay Renilla, run 1 (luminescence): 4403
- stable assay firefly, run 1 (luminescence): 4.47e5
- activity call: inactive

Records listed so far whose gene name begins with G or g (2):
GlcAT-P (GeneID 39262) [DRSC10603]
- stable assay Renilla, run 1 (luminescence): 7726
- stable assay firefly, run 1 (luminescence): 4.04e5
- activity call: inactive

GlcAT-P (GeneID 39262) [DRSC10604]
- stable assay Renilla, run 1 (luminescence): 6180
- stable assay firefly, run 1 (luminescence): 3.63e5
- activity call: inactive
